Assay results

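Saos-2 pediatric bone tumor cells were treated for 48 h, and viability was read as ATP-driven CellTiter-Glo luminescence; a drop in signal marks cell killing.
Compounds were titrated in 8- or 11-point series topping out at 46 µM, with the lowest dose about 0.78 nM for one library.
The value is the fitted half-maximal cytotoxic concentration; a lower number means stronger potency.
Calls come from curve class and activity score: inconclusive means a score of 1–39, covering weak, partial, poorly fitted or top-dose-only killing curves.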

Values are in µM.
All entries here are filed as inconclusive.
Only part of the assay is shown, chiefly results filed as inconclusive.
Potencies fitted to partial, single-point or poorly fitting curves are rough.
Some entries filed as inconclusive have a full curve.
Activity scores are not listed here.
An entry listed twice with the same setting is a separate test.

structure	Potency (µM)	curve
CC(C)NC[C@@H](O)COc1cccc2ccccc12	14.96	cytotoxic, partial curve, poor fit
Nc1ccc(O)cc1	14.96	cytotoxic, partial curve
CCOC(=O)NC(O)C(Cl)(Cl)Cl (stereo unspecified)	14.96	cytotoxic, partial curve
COc1ccc2c(c1OC)C(=O)O[C@@H]2[C@H]1c2c(cc3c(c2OC)OCO3)CCN1C	26.61	cytotoxic, single point
CN=C(NC#N)NCCSCc1nc[nH]c1C	18.84	cytotoxic, single point
COC1=CC(=O)C[C@@H](C)[C@]12Oc1c(Cl)c(OC)cc(OC)c1C2=O	26.61	cytotoxic, single point
O=C(O)CCC1CCC(c2cc(F)ccc2F)(S(=O)(=O)c2ccc(Cl)cc2)CC1 (stereo unspecified)	18.65	cytotoxic, partial curve
CN(C)C(=N)N=C(N)N	1.482	cytotoxic, partial curve
O=c1oc2cc(O)ccc2s1	14.82	cytotoxic, partial curve
CC(C)C[C@H](CC(=O)O)C(=O)N[C@@H](Cc1c[nH]c2ccccc12)C(=O)N[C@@H](C)c1ccccc1	16.63	cytotoxic, partial curve
COc1ccccc1N1CCN(CC(O)COc2cccc3ccccc23)CC1 (stereo unspecified)	29.57	cytotoxic, partial curve, poor fit
O=C(c1ccccc1)c1ccc2n1CCC2C(=O)O (stereo unspecified)	18.65	cytotoxic, partial curve
CCCn1c(=O)c2[nH]c(C34CC5CC3C[C@@H](C5)C4)nc2n(CCC)c1=O	13.21	cytotoxic, partial curve
COC(=O)Nc1nc2ccc(S(=O)c3ccccc3)cc2[nH]1 (stereo unspecified)	0.335	cytotoxic, full curve
O=C(c1ccccc1)C(O)c1ccccc1 (stereo unspecified)	14.96	cytotoxic, partial curve
COc1ccccc1N1CCN(CC(O)COc2cccc3ccccc23)CC1 (stereo unspecified)	26.61	cytotoxic, single point
N[C@@H](CC(=O)N1CCn2c(nnc2C(F)(F)F)C1)Cc1cc(F)c(F)cc1F	7.427	cytotoxic, partial curve
COc1ccccc1OCCNCC(O)COc1cccc2[nH]c3ccccc3c12 (stereo unspecified)	29.86	cytotoxic, single point
Cc1c(Cl)cccc1Nc1ccccc1C(=O)O	29.86	cytotoxic, single point
Cc1cc(NC(=O)C2=C(O)c3ccccc3S(=O)(=O)N2C)no1	26.61	cytotoxic, single point
CC(=O)OCC(=O)[C@@]12OC(C)(C)O[C@H]1C[C@H]1[C@@H]3C[C@H](F)C4=CC(=O)C=C[C@]4(C)[C@@]3(F)[C@@H](O)C[C@@]12C	23.48	cytotoxic, single point
O=C1C[C@@H](c2ccc(O)cc2)Oc2cc(O)cc(O)c21	1.177	cytotoxic, full curve
COc1cc(F)c(F)c(Nc2ccc(I)cc2F)c1NS(=O)(=O)C1(C[C@H](O)CO)CC1	14.82	cytotoxic, partial curve
COc1cc2nc(N3CCN(C(=O)c4ccco4)CC3)nc(N)c2cc1OC	37.22	cytotoxic, single point
OC(c1cc(C(F)(F)F)nc2c(C(F)(F)F)cccc12)C1CCCCN1 (stereo unspecified)	29.57	cytotoxic, single point
CC(C)(c1ccc(O)cc1)c1ccc(O)cc1	44.16	cytotoxic, partial curve
C[C@]12CC[C@H](O)CC1=CC[C@H]1[C@H]3CCC(=O)[C@@]3(C)CC[C@@H]12	16.63	cytotoxic, partial curve, poor fit
CN1CCN2c3ncccc3Cc3ccccc3C2C1 (stereo unspecified)	5.258	cytotoxic, partial curve

The last 4 entries again:

structure,Potency (µM),curve
OC(c1cc(C(F)(F)F)nc2c(C(F)(F)F)cccc12)C1CCCCN1 (stereo unspecified),29.57,"cytotoxic, single point"
CC(C)(c1ccc(O)cc1)c1ccc(O)cc1,44.16,"cytotoxic, partial curve"
C[C@]12CC[C@H](O)CC1=CC[C@H]1[C@H]3CCC(=O)[C@@]3(C)CC[C@@H]12,16.63,"cytotoxic, partial curve, poor fit"
CN1CCN2c3ncccc3Cc3ccccc3C2C1 (stereo unspecified),5.258,"cytotoxic, partial curve"

Data taken from PubChem BioAssay AID1347097, deposited by NCATS (2019).